# Results from one PubChem assay

From PubChem BioAssay record AID504749 (NCATS, 2011).

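A panel of P. falciparum strains inside erythrocytes is exposed to compounds for three days, then a DNA-binding dye reports the amount of parasite DNA.
Each compound was titrated across a series from about 0.000037 to 29 µM.
The number is the fitted AC50, the concentration giving a half-maximal change in signal; a lower value means higher potency, whether the curve shows a decrease or an increase.
Calls follow the curve class and fit quality: every row here is inconclusive, covering signal-raising curves and weak, poorly fitted, partial or highest-dose-only inhibition curves.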

Values are in µM.
All entries here are filed as inconclusive.
Only part of the assay is shown, chiefly results filed as inconclusive.
Potencies fitted to partial, single-point or poorly fitting curves are rough.

| compound | tested on / at | Potency (µM) | remark |
|---|---|---|---|
| `NC1CCN(c2nc3c(cc2F)c(=O)c(C(=O)O)cn3-c2ccc(F)cc2F)C1` (stereo not drawn) | Dd2 | 4.773 | inhibitor, partial curve, poor fit |
| `NC1CCN(c2nc3c(cc2F)c(=O)c(C(=O)O)cn3-c2ccc(F)cc2F)C1` (stereo not drawn) | N140 | 14.13 | inhibitor, single point |
| `NC1CCN(c2nc3c(cc2F)c(=O)c(C(=O)O)cn3-c2ccc(F)cc2F)C1` (stereo not drawn) | CP265 | 17.78 | inhibitor, single point |
| `CC(C)(C)C(=O)OCOP(=O)(COCCn1cnc2c(N)ncnc21)OCOC(=O)C(C)(C)C` | Dd2 | 17.78 | inhibitor, single point |
| `CC(C)(C)C(=O)OCOP(=O)(COCCn1cnc2c(N)ncnc21)OCOC(=O)C(C)(C)C` | CP185 | 14.13 | inhibitor, single point |
| `CC(C)(C)C(=O)OCOP(=O)(COCCn1cnc2c(N)ncnc21)OCOC(=O)C(C)(C)C` | DIV17 | 19.01 | inhibitor, single point |
| `CC(C)(C)C(=O)OCOP(=O)(COCCn1cnc2c(N)ncnc21)OCOC(=O)C(C)(C)C` | CP269 | 19.01 | inhibitor, single point |
| `CC(C)(C)C(=O)OCOP(=O)(COCCn1cnc2c(N)ncnc21)OCOC(=O)C(C)(C)C` | PC26 | 21.33 | inhibitor, partial curve, poor fit |
| `CC(C)(C)C(=O)OCOP(=O)(COCCn1cnc2c(N)ncnc21)OCOC(=O)C(C)(C)C` | DIV14 | 19.01 | inhibitor, single point |
| `CC(C)(C)C(=O)OCOP(=O)(COCCn1cnc2c(N)ncnc21)OCOC(=O)C(C)(C)C` | HB3 | 17.78 | inhibitor, single point |
| `CC(C)(C)C(=O)OCOP(=O)(COCCn1cnc2c(N)ncnc21)OCOC(=O)C(C)(C)C` | ATS95 | 17.78 | inhibitor, single point |
| `CC(C)(C)C(=O)OCOP(=O)(COCCn1cnc2c(N)ncnc21)OCOC(=O)C(C)(C)C` | CP335 | 19.01 | inhibitor, single point |
| `CC(C)(C)C(=O)OCOP(=O)(COCCn1cnc2c(N)ncnc21)OCOC(=O)C(C)(C)C` | PC15 | 17.78 | inhibitor, single point |
| `CC(C)(C)C(=O)OCOP(=O)(COCCn1cnc2c(N)ncnc21)OCOC(=O)C(C)(C)C` | C2A | 19.95 | inhibitor, single point |
| `CC(C)(C)C(=O)OCOP(=O)(COCCn1cnc2c(N)ncnc21)OCOC(=O)C(C)(C)C` | CP256 | 17.78 | inhibitor, single point |
| `CC(C)(C)C(=O)OCOP(=O)(COCCn1cnc2c(N)ncnc21)OCOC(=O)C(C)(C)C` | CP252 | 17.78 | inhibitor, single point |
| `NC(N)=N/N=C/c1c(Cl)cccc1Cl` | CP217 | 10 | inhibitor, single point |
| `NC(N)=N/N=C/c1c(Cl)cccc1Cl` | DIV30 | 19.01 | inhibitor, single point |
| `NC(N)=N/N=C/c1c(Cl)cccc1Cl` | CP237 | 14.13 | inhibitor, single point |
| `NC(N)=N/N=C/c1c(Cl)cccc1Cl` | CP252 | 7.943 | inhibitor, partial curve |
| `NC(N)=N/N=C/c1c(Cl)cccc1Cl` | DIV17 | 15.1 | inhibitor, single point |
| `NC(N)=N/N=C/c1c(Cl)cccc1Cl` | CP315 | 19.01 | inhibitor, single point |
| `NC(N)=N/N=C/c1c(Cl)cccc1Cl` | CP203 | 10.69 | inhibitor, partial curve |
| `NC(N)=N/N=C/c1c(Cl)cccc1Cl` | CP291 | 9.528 | inhibitor, partial curve |
| `NC(N)=N/N=C/c1c(Cl)cccc1Cl` | ATS189 | 17.78 | inhibitor, single point |
| `NC(N)=N/N=C/c1c(Cl)cccc1Cl` | TAB109 | 11.22 | inhibitor, single point |
| `NC(N)=N/N=C/c1c(Cl)cccc1Cl` | PC15 | 10 | inhibitor, single point |
| `NC(N)=N/N=C/c1c(Cl)cccc1Cl` | PC26 | 19.01 | inhibitor, single point |
| `NC(N)=N/N=C/c1c(Cl)cccc1Cl` | AA1029 | 11.22 | inhibitor, single point |
| `NC(N)=N/N=C/c1c(Cl)cccc1Cl` | TAB113 | 10 | inhibitor, single point |
| `NC(N)=N/N=C/c1c(Cl)cccc1Cl` | CP247 | 17.78 | inhibitor, single point |
| `NC(N)=N/N=C/c1c(Cl)cccc1Cl` | CP194 | 16.94 | inhibitor, single point |
| `NC(N)=N/N=C/c1c(Cl)cccc1Cl` | Dd2 | 17.78 | inhibitor, single point |
| `NC(N)=N/N=C/c1c(Cl)cccc1Cl` | CP256 | 8.912 | inhibitor, single point |
| `NC(N)=N/N=C/c1c(Cl)cccc1Cl` | CP192 | 16.94 | inhibitor, single point |
| `NC(N)=N/N=C/c1c(Cl)cccc1Cl` | ATS95 | 17.78 | inhibitor, single point |
| `NC(N)=N/N=C/c1c(Cl)cccc1Cl` | DFO2036 | 8.912 | inhibitor, single point |
| `NC(N)=N/N=C/c1c(Cl)cccc1Cl` | CP297 | 12 | inhibitor, partial curve, poor fit |
| `NC(N)=N/N=C/c1c(Cl)cccc1Cl` | CP191 | 7.943 | inhibitor, partial curve |
| `NC(N)=N/N=C/c1c(Cl)cccc1Cl` | CP268 | 15.1 | inhibitor, partial curve |
| `NC(N)=N/N=C/c1c(Cl)cccc1Cl` | CP325 | 8.492 | inhibitor, partial curve |
| `c1ccc(-c2ccc(C(c3ccccc3)n3ccnc3)cc2)cc1` (stereo not drawn) | AA1029 | 11.22 | inhibitor, single point |
| `c1ccc(-c2ccc(C(c3ccccc3)n3ccnc3)cc2)cc1` (stereo not drawn) | CP250 | 17.78 | inhibitor, single point |
| `c1ccc(-c2ccc(C(c3ccccc3)n3ccnc3)cc2)cc1` (stereo not drawn) | CP238 | 10 | inhibitor, single point |
| `c1ccc(-c2ccc(C(c3ccccc3)n3ccnc3)cc2)cc1` (stereo not drawn) | ATS95 | 17.78 | inhibitor, single point |
| `c1ccc(-c2ccc(C(c3ccccc3)n3ccnc3)cc2)cc1` (stereo not drawn) | CP291 | 10.69 | inhibitor, single point |
| `c1ccc(-c2ccc(C(c3ccccc3)n3ccnc3)cc2)cc1` (stereo not drawn) | 3D7 | 11.22 | inhibitor, single point |
| `CCOP(=S)(OCC)Oc1ccc2c(C)c(Cl)c(=O)oc2c1` | CP211 | 12 | inhibitor, single point |
| `CCOP(=S)(OCC)Oc1ccc2c(C)c(Cl)c(=O)oc2c1` | ATS189 | 7.943 | inhibitor, partial curve |

The first 5 entries again:

{"compound": "NC1CCN(c2nc3c(cc2F)c(=O)c(C(=O)O)cn3-c2ccc(F)cc2F)C1", "stereo": "stereo not drawn", "tested on / at": "Dd2", "Potency (µM)": "4.773", "remark": "inhibitor, partial curve, poor fit"}
{"compound": "NC1CCN(c2nc3c(cc2F)c(=O)c(C(=O)O)cn3-c2ccc(F)cc2F)C1", "stereo": "stereo not drawn", "tested on / at": "N140", "Potency (µM)": "14.13", "remark": "inhibitor, single point"}
{"compound": "NC1CCN(c2nc3c(cc2F)c(=O)c(C(=O)O)cn3-c2ccc(F)cc2F)C1", "stereo": "stereo not drawn", "tested on / at": "CP265", "Potency (µM)": "17.78", "remark": "inhibitor, single point"}
{"compound": "CC(C)(C)C(=O)OCOP(=O)(COCCn1cnc2c(N)ncnc21)OCOC(=O)C(C)(C)C", "tested on / at": "Dd2", "Potency (µM)": "17.78", "remark": "inhibitor, single point"}
{"compound": "CC(C)(C)C(=O)OCOP(=O)(COCCn1cnc2c(N)ncnc21)OCOC(=O)C(C)(C)C", "tested on / at": "CP185", "Potency (µM)": "14.13", "remark": "inhibitor, single point"}